Reference: patent publication US20020036154A1, “Solid pharmaceutical dosage formulation of hydrophobic drugs” (priority 2000, published 2002)
Like-named read-outs stand apart in the source and are kept apart here.

Details: 1 mg CCN90906A, 50 rpm paddles, simulated intestinal fluid, n=6, FIG. 8

dissolution, especially during the first 60 minutes (Polysorbate 80 incorporated in film Accudep Core (20%)): faster dissolution
dissolution, especially during the first 60 minutes (SLS incorporated in film Accudep Core (20% SLS)): faster dissolution
Compound: Cc1cnc(C(=O)NCCc2ccc(S(=O)(=O)NC(=O)NC3CCCCC3)cc2)cn1 [CCN90906A, Glipizide]
